These are yes or no findings as the source states them, for the method shown. Binding seen in cells or lysates may run through a third protein. A yes stands for co-enrichment or nearness to the bait. Other partners may have been found.

The chains behind the UniProt entries cited, without tags or fusion partners.
UniProt P23198: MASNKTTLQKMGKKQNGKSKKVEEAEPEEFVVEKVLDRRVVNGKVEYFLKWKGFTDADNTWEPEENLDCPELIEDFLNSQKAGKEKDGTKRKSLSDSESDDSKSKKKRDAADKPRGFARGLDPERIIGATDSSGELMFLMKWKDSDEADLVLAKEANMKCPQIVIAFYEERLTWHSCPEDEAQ

Results on one substance are retold here after publication PMC7341970.

The experiment addresses T1, Activity Dependent Neuroprotective Protein (ADNP), endogenous (mouse (endogenous in mESCs)) (UniProt Q9Z103).
T1 sequence: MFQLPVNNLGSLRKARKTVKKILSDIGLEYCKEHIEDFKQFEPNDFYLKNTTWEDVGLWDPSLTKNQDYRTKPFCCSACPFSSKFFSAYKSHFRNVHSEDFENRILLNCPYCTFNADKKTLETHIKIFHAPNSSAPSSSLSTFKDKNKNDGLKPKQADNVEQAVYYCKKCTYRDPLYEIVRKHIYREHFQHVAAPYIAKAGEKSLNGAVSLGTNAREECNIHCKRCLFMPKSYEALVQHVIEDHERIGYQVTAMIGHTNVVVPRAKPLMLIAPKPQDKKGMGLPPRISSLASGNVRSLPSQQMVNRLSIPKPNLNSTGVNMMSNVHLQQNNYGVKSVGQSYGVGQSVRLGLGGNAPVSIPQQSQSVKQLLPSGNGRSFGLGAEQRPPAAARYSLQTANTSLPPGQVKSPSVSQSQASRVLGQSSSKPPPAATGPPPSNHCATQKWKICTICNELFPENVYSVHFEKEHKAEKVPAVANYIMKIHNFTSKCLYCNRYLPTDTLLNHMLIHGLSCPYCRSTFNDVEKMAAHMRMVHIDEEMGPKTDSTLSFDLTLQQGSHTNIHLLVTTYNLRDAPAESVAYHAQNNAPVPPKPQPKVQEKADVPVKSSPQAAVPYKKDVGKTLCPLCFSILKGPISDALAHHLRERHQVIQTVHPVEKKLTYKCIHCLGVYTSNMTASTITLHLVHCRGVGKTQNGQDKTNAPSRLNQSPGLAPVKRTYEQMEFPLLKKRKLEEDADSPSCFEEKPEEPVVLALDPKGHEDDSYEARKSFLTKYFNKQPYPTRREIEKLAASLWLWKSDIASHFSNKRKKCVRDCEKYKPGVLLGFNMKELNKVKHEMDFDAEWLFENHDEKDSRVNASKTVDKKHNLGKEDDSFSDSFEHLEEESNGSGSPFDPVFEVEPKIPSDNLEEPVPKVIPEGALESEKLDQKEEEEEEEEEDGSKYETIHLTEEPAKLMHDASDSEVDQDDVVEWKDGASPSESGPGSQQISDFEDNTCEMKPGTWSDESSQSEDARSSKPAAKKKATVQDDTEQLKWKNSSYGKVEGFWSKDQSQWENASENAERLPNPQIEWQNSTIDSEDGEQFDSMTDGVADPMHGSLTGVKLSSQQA
Put plainly: affinity purification with mass spectrometry; IP with commercial ADNP antibody (IgG as control) from mESCs, whole gel lanes analysed by mass spectrometry.

As to “HP1γ, endogenous (from UniProt P23198 1-183)”, the binding result is “binds”.
